According to EP0810245A1, “Catalyst for low temperature cure of blocked isocyanates” (ELF ATOCHEM NORTH AMERICA, INC., priority 1996, dated 1997):

Assay: Solvent resistance of cured film (double rubs)
Conditions: for 100 MIBK double rubs: 30 min

In the case of `CCCCCCCCCCCC(=O)[O][Sn]([CH2]CCC)([CH2]CCC)[O]C(=O)CCCCCCCCCCC` [A, Dibutyl Sn Dilaurate], the “cure temperature for complete cure (>100 MEK rubs)” value is reported as 140 °C, the MEK double rubs (0.16% Sn, panels cured at 130°C, 2 mil dry film) is reported as “immediately attacked” and the “100 MIBK double rubs” value (Cure at 122°C) is reported as less than 10. For the same compound, the “100 MIBK double rubs” value (Cure at 130°C) was less than 10.
